# Data published in patent US8383633B2, “Aminopyrimidines useful as kinase inhibitors” (Vertex Pharmaceuticals Incorporated, priority 2007, dated 2013).
# Some results were stated once for a whole list of compounds, not compound by compound.
# Biological target: T1, Aurora-2 (Aurora A) (Homo sapiens, UniProt O14965)
# T1 sequence (O14965 1-403): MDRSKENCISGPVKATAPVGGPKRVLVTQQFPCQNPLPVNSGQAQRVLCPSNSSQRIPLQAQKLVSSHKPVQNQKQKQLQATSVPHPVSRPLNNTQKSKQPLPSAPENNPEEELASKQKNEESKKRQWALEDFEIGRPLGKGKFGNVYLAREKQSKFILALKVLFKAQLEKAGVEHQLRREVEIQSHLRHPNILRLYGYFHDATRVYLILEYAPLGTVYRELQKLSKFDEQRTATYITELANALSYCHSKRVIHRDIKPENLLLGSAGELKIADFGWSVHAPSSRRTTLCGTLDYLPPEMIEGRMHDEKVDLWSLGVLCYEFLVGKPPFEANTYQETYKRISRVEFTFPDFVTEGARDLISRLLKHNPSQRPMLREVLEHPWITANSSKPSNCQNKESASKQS
# Assay: Aurora-2 (Aurora A) Inhibition Assay, coupled enzyme assay
# Type: biochemical
# Conditions: 400 μM ATP, 570 μM Kemptide, 40 nM Aurora-2, 30° C.
row,SMILES,Ki [µM]
1,"O=C(CC(F)(F)F)Nc1ccc(Sc2nc(Nc3nnc[nH]3)cc(N3CC(F)(C4CC4)C3)n2)cc1 [Compound I-2, N-(4-(4-(4H-1,2,4-Triazol-3-ylamino)-6-(3-cyclopropyl-3-fluoroazetidin-1-yl)pyrimidin-2-ylthio)phenyl)-3,3,3-trifluoropropanamide]",< 0.5
2,"O=C(CC(F)(F)F)Nc1ccc(Sc2nc(Nc3ccccn3)cc(N3CC(F)(C4CC4)C3)n2)cc1 [Compound I-3, N-(4-(4-(3-Cyclopropyl-3-fluoroazetidin-1-yl)-6-(pyridin-2-ylamino)pyrimidin-2-ylthio)phenyl)-3,3,3-trifluoropropanamide]",< 0.5
3,"O=C(Nc1ccc(Sc2nc(Nc3ncns3)cc(N3CC(F)(C4CC4)C3)n2)cc1)C1CC1 [Compound I-4, N-(4-(4-(1,2,4-Thiadiazol-5-ylamino)-6-(3-cyclopropyl-3-fluoroazetidin-1-yl)pyrimidin-2-ylthio)phenyl)cyclopropanecarboxamide]",< 0.5
4,"O=C(Nc1ccc(Sc2nc(Nc3ncns3)cc(N3CCC3)n2)cc1)c1ccccc1Cl [Compound I-7, N-(4-(4-(1,2,4-Thiadiazol-5-ylamino)-6-(azetidin-1-yl)pyrimidin-2-ylthio)phenyl)-2-chlorobenzamide]",< 0.5
5,"O=C(NCC(F)(F)F)c1ccc(Sc2nc(Nc3ncns3)cc(N3CC(F)(C4CC4)C3)n2)cc1 [Compound I-8, 4-(4-(1,2,4-Thiadiazol-5-ylamino)-6-(3-cyclopropyl-3-fluoroazetidin-1-yl)pyrimidin-2-ylthio)-N-(2,2,2-trifluoroethyl)benzamide]",< 0.5
